Results: patent US20100168033A1, “UNACYLATED GHRELIN AS THERAPEUTIC AGENT IN THE TREATMENT OF METABOLIC DISORDERS” (ALIZE PHARMA SAS, priority 2007, published 2010)
Some entries share one result that the patent states for a list of compounds. No end group written: not given here.

Test system: ob/ob mice
Assay: ob/ob mice, 4-week intraperitoneal pump infusion
Type: in vivo, mouse
Conditions: fasted, week 2
Experimental: Baseline tail vein plasma samples were collected from free-fed and 16 h fasted ob/ob mice 7 and 6 days before pump implantation into K2EDTA coated capillary tubes (Microvette CB300 K2E; Sarstedt, Germany). The animals were then separated into three groups with approximately equivalent weight ranges. Ten week old mice were anesthetized, and a filled Alzet 1004 pump was inserted, delivery portal first, into the peritoneal cavity. The musculoperitoneal and skin layers were then closed using interrupted sutures (Vicryl 5.0 FS-2 absorbable suture). Animals received pumps containing either saline, 10 mg/ml UAG, or 3.5 mg/mL UAG (6-13) (n=8 per group). Alzet 1004 pumps deliver […], and infused 30 μg of hUAG/animal/day (˜600 μg/kg/day) and 10 μg of UAG (6-13)/animal/day (˜200 μg/kg/day).
Blood samples (at 0900-1000) were obtained from fed and fasted animals at weeks 2 and 4 via the tail vein into EDTA Microvette tubes. Glucose levels in tail vein blood were measured directly using a glucometer. On the last day of treatment baseline (fasted) blood samples were taken.
For the experimental data illustrated in FIGS. 14A, 14B, 15 and 16, the animals were obtained from Charles River Laboratories (Maastricht, The Netherlands). […] Blood glucose levels were measured directly from tail vein incisions using a Freestyle mini glucometer and test strips (ART05214 Rev.A; Abbot, Amersfoort, The Netherlands). […]

Sequence: SPEHQRVQ [UAG (6-13), Ser-Pro-Glu-His-Gln-Arg-val-Gln]
- suppression of fasting glucose concentrations from saline treated controls: 25-30%
